Binding data for three substances are collected here from article PMC6002714, “Bovine Herpesvirus 1 UL49.5 Interacts with gM and VP22 To Ensure Virus Cell-to-Cell Spread and Virion Incorporation: Novel Role for VP22 in gM-Independent UL49.5 Virion Incorporation” (Journal of Virology, 2018).

By UniProt entry, the sequences of proteins in these tests, tags left out. Residues count along the entry.
UniProt D5KR85: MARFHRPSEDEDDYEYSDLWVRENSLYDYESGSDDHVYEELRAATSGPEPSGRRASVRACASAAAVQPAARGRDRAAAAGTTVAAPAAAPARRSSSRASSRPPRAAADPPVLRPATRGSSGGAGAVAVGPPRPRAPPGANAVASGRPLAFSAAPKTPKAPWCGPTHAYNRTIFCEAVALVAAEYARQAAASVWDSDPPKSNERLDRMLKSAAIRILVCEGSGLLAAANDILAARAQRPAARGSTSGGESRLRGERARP
UniProt Q77CE4, residues 22-79: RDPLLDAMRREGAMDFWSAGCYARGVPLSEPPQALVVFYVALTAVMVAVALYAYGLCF
UniProt A0A0U2T5D3: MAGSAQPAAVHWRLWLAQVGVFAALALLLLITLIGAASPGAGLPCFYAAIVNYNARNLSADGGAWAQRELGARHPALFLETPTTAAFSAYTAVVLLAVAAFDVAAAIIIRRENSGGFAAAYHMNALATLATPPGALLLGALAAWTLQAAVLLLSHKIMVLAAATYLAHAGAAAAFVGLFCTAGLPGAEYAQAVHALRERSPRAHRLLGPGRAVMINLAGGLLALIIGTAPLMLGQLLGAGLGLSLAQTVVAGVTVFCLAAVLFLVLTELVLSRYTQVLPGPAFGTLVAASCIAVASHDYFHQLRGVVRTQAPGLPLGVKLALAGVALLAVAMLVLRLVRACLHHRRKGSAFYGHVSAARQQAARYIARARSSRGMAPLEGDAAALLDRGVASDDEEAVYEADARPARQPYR

Results are given in words; binding and its absence hold for the method and conditions named. Binding seen in cells or lysates may run through a third protein. Some results given as binding are weak or reduced against the parent protein; the word gives no strength.

The target of assay [1] is BHV-1 tegument protein VP22 (Bovine herpesvirus type 1 (BHV-1), Cooper (Colorado-1) strain) (UniProt D5KR85). As to the kind of experiment: co-IP; lysates of wt, C42S, CT-null and C42S/CT-null virus-infected cells immunoprecipitated with anti-VP22 antibody; Western blot with anti-UL49.5, anti-VP22 and anti-gE. In general terms: In western blotting, separated proteins are transferred to a membrane and probed.

Assay [2] concerns the target BHV-1 envelope glycoprotein M (gM) (Bovine herpesvirus type 1 (BHV-1), Cooper (Colorado-1) strain). Description: co-IP; 35S-labeled lysates of virus-infected MDBK cells immunoprecipitated with anti-gM polyclonal antibody (protein A-Sepharose), reducing SDS-PAGE, autoradiography.
Assay [3] deals with BHV-1 UL49.5 CT-null (Bovine herpesvirus type 1 (BHV-1), Cooper (Colorado-1) strain) (UniProt Q77CE4). Description: co-IP; 35S-labeled lysates of virus-infected MDBK cells immunoprecipitated with anti-UL49.5 polyclonal antibody (protein A-Sepharose), reducing SDS-PAGE, autoradiography.
The target in assay [4] is BHV-1 envelope glycoprotein M (gM) (Bovine herpesvirus type 1 (BHV-1), Cooper (Colorado-1) strain). As to the kind of experiment: co-IP; lysates of wt, C42S, CT-null and C42S/CT-null virus-infected cells immunoprecipitated with anti-gM antibody; Western blot with anti-gM and anti-VP22.

Take “BHV-1 UL49.5 CT-null (from UniProt Q77CE4 22-79) (domain or fragment)”: the binding entry in assay [1] and in assay [2] was “binds” each time.

For “BHV-1 envelope glycoprotein M (gM) (from UniProt A0A0U2T5D3 1-411)”, in assay [3], the binding result is “binds”.

For “BHV-1 tegument protein VP22 (from UniProt D5KR85 1-258)”, the binding entry in assay [4] was “binds”.
